These are yes or no findings as the source states them, for the method shown.
B1: CD3B376 (antibody, human IgG4 S228P, lambda, F234A L235A, V domains shown)
VH: QVQLQQSGPRLVRPSQTLSLTCAISGDSVFNNNAAWSWIRQSPSRGLEWLGRTYYRSKWLYDYAVSVKSRITVNPDTSRNQFTLQLNSVTPEDTALYYCARGYSSSFDYWGQGTLVTVSS
VL: QSALTQPASVSGSPGQSITISCTGTSSNIGTYKFVSWYQQHPDKAPKVLLYEVSKRPSGVSSRFSGSKSGNTASLTISGLQAEDQADYHCVSYAGSGTLLFGGGTKLTVLG
B2: TMEB762 (antibody, human IgG4 S228P, kappa, F234A L235A, V domains shown)
VH: EVQLLESGGGLVQPGGSLRLSCAASGFTFSSYSMSWVRQAPGKGLEWVSVISGSGGFTDYADSVKGRFTISRDNSKNTLYLQMNSLRAEDTAVYYCARMPLNSPHDYWGQGTLVTVSS
VL: DIQMTQSPSSLSASVGDRVTITCRASQGIRNDLGWYQQKPGKAPKLLIYAASSLQSGVPSRFSGSGSGTDFTLTISSLQPEDFATYYCLQDYNYPLTFGGGTKVEIKR

Experiments:
Assay in all cases: Biacore 8K SPR, antibody over immobilised protein
Lysozyme = biological target: Lysozyme
Soy Trypsin Inhibitor = biological target: Soy Trypsin Inhibitor
β-defensin = biological target: β-defensin

Binder	binding (Lysozyme)	binding (Soy Trypsin Inhibitor)	binding (β-defensin)
B1	no binding (tested: response unit ≥100 predicts high risks)	no binding (tested: response unit ≥100 predicts high risks)	no binding (tested: response unit ≥100 predicts high risks)
B2	no binding (tested: response unit ≥100 predicts high risks)	no binding (tested: response unit ≥100 predicts high risks)	no binding (tested: response unit ≥100 predicts high risks)
